PubChem BioAssay AID504784 | Drosophila RNAi Screening Center, 2011
Aim: 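Search for regulators of lipid droplet storage in oleate-fed fly cells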 (primary screen). System: Drosophila Kc167 embryonic cells. Knock-down reagent: long dsRNA against Drosophila genes, about 250 ng dsRNA per well. Duration: 4 days. Conditions: cells fed 400 µM oleic acid bound to BSA. Measured: 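Cells imaged and segmented; ratio of lipid droplet area to nuclear area, log-transformed, then normalised as a B-score over the screen; higher means more stored lipid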. Direction: droplet/nuclear area B-score: higher = more stored lipid (overstorage).
The screen tested about 17,000 reagents; below is a random part of those with a known target gene and a result. 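Each column is one replicate's B-score; the combined score over replicates was not deposited, so single values may mislead.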 A plus sign joins genes that one reagent is predicted to hit. Not all columns of the deposit are shown. No sequences are given here.

no.	gene	amplicon	droplet/nuclear area B-score, replicate 1	droplet/nuclear area B-score, replicate 2
1	CG3165 (GeneID 33503)	DRSC00573	-0.544	1.07
2	sdk (GeneID 31017)	DRSC18831	-0.227	3.34
3	CG4306 (GeneID 40017)	DRSC10409	0.174	1.07
4	CG7191 (GeneID 34058)	DRSC03022	-1.98	0.148
5	CG12992 (GeneID 32733)	DRSC19512	-0.47	0.532
6	CG14826 (GeneID 38791)	DRSC10197	-1.66	-2.08
7	APC7 (GeneID 31594)	DRSC17937	3.34	1.03
8	CG8180 (GeneID 36713)	DRSC07092	-0.779	1.02
9	CG8180 (GeneID 36713)	DRSC07093	-0.651	-1.44
10	Vha100-3 (GeneID 246543)	DRSC05760	-0.415	0.0122
11	MED7 (GeneID 41288)	DRSC16059	-0.28	0.0254
12	ms(2)35Ci (GeneID 49529)	DRSC01460	1.22	-0.233
13	Vha68-2 (GeneID 45012)	DRSC02721	-0.374	0.0904
14	Gr98a (GeneID 43305)	DRSC14719	2.01	2.77
15	Smyd5 (GeneID 42517)	DRSC15483	-0.575	-0.41
16	CG14480 (GeneID 36988)	DRSC06452	-0.118	-0.933
17	CG31909 (GeneID 319020)	DRSC22180	-0.673	-3.22
18	Ugt302C1 (GeneID 53510)	DRSC15353	0.703	0.00648
19	Kdm5 (GeneID 33837)	DRSC03133	0.643	0.206
20	mRpL20 (GeneID 39477)	DRSC09828	2.3	0.823
21	Socs36E (GeneID 35085)	DRSC02455	-0.717	0.242
22	CG31082 (retired record) (GeneID 318587)	DRSC13775	2.13	-0.106
23	Reck (GeneID 39629)	DRSC10504	-0.721	-0.456
24	Reck (GeneID 39629)	DRSC10505	-0.402	-0.869
25	Trp1 (GeneID 34333)	DRSC03465	1.33	1.35
26	CG14731 (GeneID 41442)	DRSC14952	-1.12	0.0905
27	KLHL18 (GeneID 41458)	DRSC15496	0.736	-6.61
28	Coq7 + shf	DRSC18448	-1.8	0.128
29	Eig71Ei (GeneID 39710)	DRSC11156	-0.359	0.18
30	nerfin-2 (GeneID 41235)	DRSC14547	-0.384	-0.982

Copied from the entries so far, 4 entries:
no.	gene	amplicon	droplet/nuclear area B-score, replicate 1	droplet/nuclear area B-score, replicate 2
16	CG14480 (GeneID 36988)	DRSC06452	-0.118	-0.933
17	CG31909 (GeneID 319020)	DRSC22180	-0.673	-3.22
18	Ugt302C1 (GeneID 53510)	DRSC15353	0.703	0.00648
19	Kdm5 (GeneID 33837)	DRSC03133	0.643	0.206

More reagents follow.
no.	gene	amplicon	droplet/nuclear area B-score, replicate 1	droplet/nuclear area B-score, replicate 2
31	CG9101 (GeneID 32452)	DRSC20152	1.03	-1.31
32	CG31345 (GeneID 41576)	DRSC14193	-1.5	2.31
33	CG31345 (GeneID 41576)	DRSC14847	-2.04	-0.508
34	CG13054 (GeneID 39780)	DRSC09935	-0.00662	1.12
35	Rnb (GeneID 43513)	DRSC16325	0.461	-0.688
36	Nup205 (GeneID 33002)	DRSC19432	-1.71	-0.795
37	CG13623 (GeneID 42926)	DRSC14625	4.84	6.33
38	RpS27 (GeneID 43039)	DRSC14244	2.67	1.81
39	CG3213 (GeneID 33574)	DRSC00576	4.42	3.56
40	Srpk79D (GeneID 40461)	DRSC11668	-0.00594	1.19
41	Srpk79D (GeneID 40461)	DRSC11856	-0.0265	0.421
42	Pex5 (GeneID 31141)	DRSC18552	0.664	-1.58
43	CG10163 (GeneID 38728)	DRSC09710	0.598	
44	CG8260 (GeneID 32521)	DRSC20098	0.0775	0.359
45	sick (GeneID 35277)	DRSC02090	0.0736	1.19
46	sick (GeneID 35277)	DRSC02301	-0.812	-0.795
47	sick (GeneID 35277)	DRSC02302	1.85	1.2
48	sick (GeneID 35277)	DRSC02303	0.769	1.65
49	sick (GeneID 35277)	DRSC02306	2.14	-0.134
50	CG1764 (GeneID 32281)	DRSC19779	0.852	0.657
51	rn (GeneID 40879)	DRSC12500	-2.1	-1.28
52	rn (GeneID 40879)	DRSC12543	-1.41	-0.365
53	rn (GeneID 40879)	DRSC12544	2.52	1.84
54	rn (GeneID 40879)	DRSC12546	-1.28	0.0571
55	rn (GeneID 40879)	DRSC22291	1.85	2.24
56	Ance-4 (GeneID 35909)	DRSC07104	0.0888	1.41
